Reference: PubChem BioAssay AID1259424 (University of Nebraska Medical Center, 2018)

Screen: 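Seek colon cancer survival genes behaving like KSR1, using a six-gene signature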 (primary screen)
Cells: human HCT116 colon cancer cells
Knock-down reagent: siRNA pool against human genes, 50 nM
Measurement: 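Log2 levels of six mRNAs (branched-DNA multiplex), adjusted by two reference genes and the non-targeting median, then scored against the average KSR1 knockdown pattern as Pearson r and euclidean distance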
Reading the numbers: mean correlation with KSR1 profile: higher = expression change more like KSR1 knockdown; mean distance from KSR1 profile: higher = expression change less like KSR1 knockdown
Here is a random part of about 14,000 deposited reagents. 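Higher correlation or smaller distance means closer resemblance to KSR1 loss; control wells, including KSR1 knockdowns, recur on many plates.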 Not all columns of the deposit are shown. The record does not give: the time to read-out.

The first 2 records, to show the layout:
{"target": "RBMX2", "PubChem SID": "SID363999803", "mean correlation with KSR1 profile": -0.191, "mean distance from KSR1 profile": 2.41}
{"target": "LYVE1", "PubChem SID": "SID363997473", "mean correlation with KSR1 profile": 0.254, "mean distance from KSR1 profile": 2.26}

The list itself, repeating the preview:
{"target": "RBMX2", "PubChem SID": "SID363999803", "mean correlation with KSR1 profile": -0.191, "mean distance from KSR1 profile": 2.41}
{"target": "LYVE1", "PubChem SID": "SID363997473", "mean correlation with KSR1 profile": 0.254, "mean distance from KSR1 profile": 2.26}
{"target": "CENPF", "PubChem SID": "SID364000048", "mean correlation with KSR1 profile": -0.311, "mean distance from KSR1 profile": 2.67}
{"target": "ATP5PD", "PubChem SID": "SID363997172", "mean correlation with KSR1 profile": -0.154, "mean distance from KSR1 profile": 2.38}
{"target": "PNISR", "PubChem SID": "SID364004243", "mean correlation with KSR1 profile": -0.546, "mean distance from KSR1 profile": 3.87}
{"target": "VPS29", "PubChem SID": "SID363999963", "mean correlation with KSR1 profile": -0.705, "mean distance from KSR1 profile": 7.17}
{"target": "SLC5A2", "PubChem SID": "SID363994190", "mean correlation with KSR1 profile": 0.453, "mean distance from KSR1 profile": 1.2}
{"target": "SLC27A2", "PubChem SID": "SID363994720", "mean correlation with KSR1 profile": 0.0514, "mean distance from KSR1 profile": 2.57}
{"target": "SCGB2A1", "PubChem SID": "SID363993585", "mean correlation with KSR1 profile": -0.284, "mean distance from KSR1 profile": 1.98}
{"target": "CMC2", "PubChem SID": "SID364001541", "mean correlation with KSR1 profile": -0.0473, "mean distance from KSR1 profile": 1.91}
{"target": "COX6B1", "PubChem SID": "SID363993076", "mean correlation with KSR1 profile": -0.308, "mean distance from KSR1 profile": 2.94}
{"target": "KLRC4", "PubChem SID": "SID363998510", "mean correlation with KSR1 profile": 0.0316, "mean distance from KSR1 profile": 1.77}
